PubChem BioAssay AID1347075 (National Center for Advancing Translational Sciences (NCATS), 2019)
Among all 400,000 compounds or so, about 5,500 (1.4%) were called active. The inconclusive results got no clear call from the source; some entries with a clear call stand among them for comparison. The call rests on the fitted dose curve; in most records, active means well fitted cell-killing curve with a large enough effect; inconclusive means small, poorly fitted or top-dose-only effect, or effect the other way; inactive means flat fitted curve, though single readings scatter. Where the call is inconclusive, the potency comes from a doubtful curve fit.

Assay: qHTS assay for MDR1-selective chemotherapeutics: Primary screen using the parental adenocarcinoma cell KB-3-1; further: nearly all actives have a fitted effect of over 60% in size
Conditions: KB-3-1 viability, CellTiter-Glo ATP luminescence, 72 h; activity change, negative = cytotoxic: at 46.1 µM (top of the series)
Outline: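 KB-3-1 parental drug-naive adenocarcinoma cells in DMEM/10% FBS, incubated 72 h at 37 C with pin-transferred compounds across a concentration series. Viability by CellTiter-Glo luminescence; concentration-response curves fitted after normalization.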
On the % scale 0 is the no-effect control and ±100 the full control effect; potency means the concentration at half of the fitted maximal effect.

Structure (SMILES) | activity change, negative = cytotoxic | Potency
CC(=O)Nc1ccccc1-c1nc2ccc(C(=O)N3CCN(c4cccc(C)c4)C(C)C3)cc2[nH]c1=O (centres undefined) | inconclusive: -3.82% | 
COc1ccc(CC(=O)Nc2ccc(C)c(S(=O)(=O)N3CCCCCC3)c2)cc1 |  | inconclusive: 32.6 µM [cytotoxic, single point]
O=[N+]([O-])c1cncc([N+](=O)[O-])c1Nc1cccc(O)c1 |  | inconclusive: 29.1 µM [cytotoxic, single point]
CCCn1c(=O)sc2cc(NC(=O)c3ccccc3OCC)ccc21 | inactive: 7.18% | 
O=C(CN1CCN(Cc2ccccc2)CC1)Nc1ccc2c(c1)CCC2 |  | inconclusive: 29.1 µM [rising, single point]
COCCCN=C1NN=C(c2cc(C)n(-c3ccccc3F)c2C)CS1 |  | active: 7.31 µM
Cc1ccc(S(=O)(=O)Nc2ccc3c(c2)CCC3)cc1 |  | inconclusive: 23.1 µM [cytotoxic, partial curve, poor fit]
CC(C)N(C(=O)[C@H]1C[C@H](CC(=O)NCCC2=CCCCC2)C(=O)N2CCc3c([nH]c4cc(-c5ccco5)ccc34)[C@]12C)C(C)C |  | active: 23.1 µM
CCCS(=O)(=O)N1CCN(Cc2ccc(OCc3ccccc3)c(OC)c2)CC1 | inactive: -17.7% | 
O=C(C1CC(c2ccc(F)cc2)=NO1)N1CCN(Cc2ccccc2)CC1 (centres undefined) | inactive: 19.2% | 
COc1ccc(NC(=O)/C(C#N)=C/c2cc(C)n(-c3ccc(N4CCOCC4)c([N+](=O)[O-])c3)c2C)cc1 | inactive: -20.7% | 
CC(C)c1nc(N2CCOCC2)c(C#N)c2c1COC(C)(C)C2 |  | inconclusive: 25.9 µM [rising, partial curve, poor fit]
CCOC(=O)CCSc1nc(C)c2cc(C)c(C)cc2n1 |  | inconclusive: 7.31 µM [rising, partial curve, poor fit]
Cc1nn(Cc2ccccc2Cl)c(C)c1C(=O)NCC(c1cccs1)N1CCOCC1 (centres undefined) | inactive: 17.4% | 
O=C(O)C1CCC(Cn2c(SCc3cc(=O)n4cc(Br)ccc4n3)nc3ccsc3c2=O)CC1 (centres undefined) | inconclusive: -45.7% | 
O=C(CNC(=S)N(Cc1ccccc1F)C1CCCCC1)NCC1CCCO1 (centres undefined) | inactive: -26.7% | 
CN(CCCN(Cc1ccc(Cl)cc1)c1ccc(Br)cn1)C(=S)NCCCc1cnc[nH]1 |  | inconclusive: 14.6 µM [cytotoxic, partial curve, poor fit]
COc1ccccc1NC(=S)N(CCCN(C)C)Cc1cc2cc3c(cc2[nH]c1=O)OCO3 | inactive: 24.4% | 
CCCCNc1ncnc2oc(-c3ccco3)c(-c3ccco3)c12 |  | inconclusive: 10.3 µM [cytotoxic, partial curve, poor fit]
CC(NCC(=O)Nc1cc(S(=O)(=O)N2CCOCC2)ccc1Cl)c1ccc(Cl)cc1Cl (centres undefined) |  | inconclusive: 16.4 µM [cytotoxic, single point]
CC(C)Cn1nc(NC(=O)c2ccco2)c2cc3ccccc3nc21 |  | inconclusive: 25.9 µM [cytotoxic, single point]
CC(C)c1ccc(NC(=O)C(c2ccccc2)N2CC(=O)Nc3ccccc32)cc1 (centres undefined) |  | inconclusive: 0.164 µM [rising, full curve]
COc1ccc(C2c3[nH]c4ccccc4c3CCN2Cc2cccn2-c2ncccn2)cc1C (centres undefined) |  | inconclusive: 25.9 µM [cytotoxic, partial curve, poor fit]

Structure (SMILES) | activity change, negative = cytotoxic | Potency
COc1ccc(N2CCCn3c2nc2c3c(=O)n(Cc3ccc(F)cc3)c(=O)n2C)c(OC)c1 | inactive: -3.29% | 
CCC[C@@H](CN1CCC[C@H]1CN1C(N)=NC[C@H]1CC(C)C)N1C[C@@H](Cc2ccccc2)N(CCc2ccc(Cl)c(Cl)c2)C1=N | inactive: 0% | 
COc1cc2c(cc1NC(=O)CN(C)Cc1nc3ccccc3c(=O)[nH]1)oc1ccccc12 |  | inconclusive: 29.1 µM [cytotoxic, single point]
O=C(Nc1ccc(N2CCN(C(=O)c3cccs3)CC2)cc1)c1ccccc1Cl |  | active: 16.4 µM
CCN1C(C(=O)c2ccccc2)=C(OC(=O)C(C)C)c2ccccc2S1(=O)=O |  | inconclusive: 29.1 µM [cytotoxic, single point]
Cc1ccccc1NC(=O)N1CCCC(c2nc(-c3ccc(C(C)C)cc3)no2)C1 (centres undefined) |  | active: 18.4 µM
CC(C)NC(=O)Nc1ccc2c(c1)C(=O)N([C@H](C)CO)C[C@H](C)[C@@H](CN(C)Cc1ccc(C(F)(F)F)cc1)OCCCC[C@@H](C)O2 |  | inconclusive: 29.1 µM [cytotoxic, single point]
CC(C)(C#N)NC(=O)C1CCCN1S(=O)(=O)c1ccc2ccccc2c1 (centres undefined) |  | inconclusive: 23.1 µM [cytotoxic, single point]
Cc1ccccc1OCC(O)Cn1c(NCc2ccco2)nc2c1c(=O)n(C)c(=O)n2C (centres undefined) | inactive: -16.9% | 
Cc1onc(-c2ccccc2)c1C(=O)Nc1nc(-c2ccccc2)cs1 |  | inconclusive: 16.4 µM [cytotoxic, partial curve, poor fit]
O=S1(=O)Nc2c(ccc3cccnc23)-c2ccccc21 |  | active: 18.4 µM
CCOC(=O)c1c(NC(=O)c2ccc(Br)o2)sc2c1CCCC2 |  | inconclusive: 20.6 µM [cytotoxic, partial curve, poor fit]
COc1ccc(C(=O)/C=C/c2ccc(OC)c(CN3CCOCC3)c2)cc1 |  | inconclusive: 29.1 µM [cytotoxic, single point]
Cc1ccc(-c2csc(-c3c[nH]c4ccccc34)n2)c(C)c1 |  | inconclusive: 29.1 µM [cytotoxic, single point]
Cc1c(C(=O)NCCN2CCCC(O)C2)oc2c(F)cccc12 (centres undefined) | inactive: -0.0084% | 
O=C1C(Nc2ccccc2)=C(N2CCCCC2)C(=O)c2ccccc21 |  | inconclusive: 10.3 µM [cytotoxic, partial curve, poor fit]
O=Cc1cn(-c2ccccc2)nc1-c1ccncc1 |  | inconclusive: 29.1 µM [cytotoxic, single point]
Cc1cccc(/C=C\c2nc3ccccc3c(=O)[nH]2)c1 |  | active: 14.6 µM
COc1cc(NCCCC(C)N)c2ncccc2c1 (centres undefined) |  | inconclusive: 25.9 µM [cytotoxic, partial curve, poor fit]
CCC1(C)Cc2ccccc2-c2nc(SC)[nH]c(=O)c21 (centres undefined) |  | inconclusive: 23.1 µM [cytotoxic, single point]
CCc1nc2ccccc2n1CCCCOc1ccccc1C |  | inconclusive: 16.4 µM [cytotoxic, partial curve, poor fit]
O=C(Nc1nccs1)c1nc[nH]c1C(=O)NCc1ccccc1 |  | inconclusive: 2.59 µM [cytotoxic, full curve, poor fit]
Cc1cc(NC(=O)CSc2nc3c(C)cccc3cc2C#N)no1 |  | inconclusive: 4.11 µM [cytotoxic, partial curve, poor fit]

Not a retest: three of the compounds above.
Structure (SMILES) | activity change, negative = cytotoxic | Potency
Cc1onc(-c2ccccc2)c1C(=O)Nc1nc(-c2ccccc2)cs1 |  | inconclusive: 16.4 µM [cytotoxic, partial curve, poor fit]
O=S1(=O)Nc2c(ccc3cccnc23)-c2ccccc21 |  | active: 18.4 µM
CCOC(=O)c1c(NC(=O)c2ccc(Br)o2)sc2c1CCCC2 |  | inconclusive: 20.6 µM [cytotoxic, partial curve, poor fit]

Additional structures

Structure (SMILES) | activity change, negative = cytotoxic | Potency
CC(=Nc1ccccc1)C1=C(O)CC(C)(C)CC1=O | inactive: 11.5% | 
COC(=O)c1ccc(-n2c(/C=C\c3cccc(Br)c3)nc3ccccc3c2=O)cc1 |  | active: 13 µM
C=CC(=O)Nc1sc2c(c1C(N)=O)CCCC2 |  | inconclusive: 29.1 µM [cytotoxic, single point]
CC(Nc1nc(N2CCCC2)nc2ccccc12)c1ccccc1 (centres undefined) |  | active: 16.4 µM
Cc1ccc(C(=O)Nc2nnc(-c3ccco3)o2)cc1C |  | inconclusive: 23.1 µM [cytotoxic, single point]
CC1CCN(C2(O)C(=O)Nc3ccc([N+](=O)[O-])cc32)CC1 (centres undefined) | inactive: -2.13% | 
COc1cc2cc(C(c3nnnn3C3CCCC3)N(C)C3CCCCC3)c(=O)[nH]c2cc1OC (centres undefined) | inactive: -1.49% | 
CCOC(=O)C1=C(C)Nc2ccccc2N=C1N | inactive: 4.23% | 
COc1cc(-c2nc(-c3ccccc3)c(-c3cccs3)[nH]2)cc(OC)c1O |  | inconclusive: 16.4 µM [cytotoxic, single point]
O=C(N/N=C/c1ccc(F)cc1)c1ccncc1 |  | inconclusive: 0.82 µM [rising, full curve, poor fit]
Cc1nn(Cc2ccc(F)cc2)c(Cl)c1/C=N/NC(=O)c1ccccc1 |  | inconclusive: 29.1 µM [cytotoxic, single point]
Cc1cc(-c2nnc(SCC(=O)c3ccc(Cl)cc3)o2)no1 |  | inconclusive: 0.0065 µM [cytotoxic, full curve]
CCCCCCSc1ccc(-c2nc3cnccn3c2NC2CCCCC2)cc1 |  | inconclusive: 20.6 µM [cytotoxic, single point]
COc1cc(/C=N/NC(=O)CC#N)ccc1Oc1nc(Cl)ncc1F | inactive: -21.5% | 
O=C(Nc1ccc(NC(=S)NC(=O)c2ccccc2Cl)cc1)c1cccc(Cl)c1 |  | inconclusive: 20.6 µM [cytotoxic, single point]
CN(C)c1ccnc(Nc2ccc(O)cc2)c1C#N |  | inconclusive: 29.1 µM [cytotoxic, single point]
COc1cc(OC)c(/C=C/c2cc3ccccc3c[n+]2C)c(OC)c1 |  | active: 0.92 µM
COc1ccc(NC(=O)c2ccc3c(c2)c(C)c(C)n3Cc2ccc(F)cc2)cc1 |  | active: 11.6 µM
O=C(NCCN1CCCCC1)Nc1ccc(Br)cc1 | inactive: 2.47% | 
CN(C)C(=O)c1cccc(-c2cnc3c(NC=O)cc(-c4ccccc4Cl)cn23)c1 |  | inconclusive: 18.4 µM [cytotoxic, single point]
CC(CN(C)Cc1nc(Cc2cccc(C(F)(F)F)c2)no1)CN1CCCC1 (centres undefined) |  | inconclusive: 29.1 µM [cytotoxic, single point]
Cc1ccc(-n2c(SCC(=O)N3CC(=O)Nc4ccccc43)nc3ccccc3c2=O)cc1C |  | inconclusive: 18.4 µM [cytotoxic, single point]
COc1ccc(-c2nnc(NC(=O)c3ccc(S(=O)(=O)N4COCC4(C)C)cc3)o2)cc1 |  | inconclusive: 7.31 µM [cytotoxic, partial curve]
